Structures were worked out from names or drawings and are uncertain.

Protein sequences, listed by entry. Tags and fused reporters are not part of them. Residues count along the entry.
UniProt O14791, 28-398 S342G/I384M limits assumed: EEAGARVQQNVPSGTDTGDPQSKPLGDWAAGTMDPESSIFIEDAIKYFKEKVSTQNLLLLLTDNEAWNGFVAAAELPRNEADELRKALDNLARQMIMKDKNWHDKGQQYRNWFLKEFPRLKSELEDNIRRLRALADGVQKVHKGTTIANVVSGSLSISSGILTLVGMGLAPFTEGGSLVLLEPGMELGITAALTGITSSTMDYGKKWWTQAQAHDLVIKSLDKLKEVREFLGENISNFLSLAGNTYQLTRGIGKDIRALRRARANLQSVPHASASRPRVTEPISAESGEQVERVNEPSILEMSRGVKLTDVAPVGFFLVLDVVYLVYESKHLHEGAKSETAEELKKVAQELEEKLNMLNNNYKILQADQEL

The target in the experiment is G1 APOL1 (Homo sapiens, UniProt O14791, I384M/S342G). Description: Acute APOL1 Thallium Assay with Inducible Stable Clones of HEK 293 Cells. The settings on record: read-out: Thallium Assay (IC50), HEK 293 inducible stable clones. The text has this: Acute APOL1 Thallium Assay with Inducible Stable Clones of HEK 293 Cells
Apolipoprotein L1 (APOL1) proteins form potassium-permeable cation pores in the plasma membrane. APOL1 risk variants (G1 and G2) induce greater potassium flux than G0 in HEK293 cells. This assay exploits the permeability of thallium (Tl+) through ligand-gated potassium channels. The dye produces a bright fluorescent signal upon binding to Tl+ conducted through potassium channels. The intensity of the Tl+ signal is proportional to the number of potassium channels in the open state. Therefore, it provides a functional indication of the potassium channel activities. During the initial dye-loading step, the Tl+ indicator dye as an acetoxymethyl (AM) ester enters the cells through passive diffusion. […] The increase of fluorescence in the assay represents the influx of Tl+ into the cell specifically through the potassium channel (i.e. through APOL1 pores), providing a functional measurement of potassium channel/pore activity. […]
Preparation of Cell Assay Plates • Culture medium is removed from the x cm^2 T-flask by aspiration. • The cell monolayer is rinsed with PBS 1× at room temperature. […] Cell suspension is then transferred to a 50 mL Falcon polypropylene tube. • Cells are then counted using a BioRad TC10 cell counter and the required amount of cells are centrifuged at 1200 RPM for 5 minutes. […]

What is called IC50 is the concentration at which inhibition is half-maximal. Regarding `O=C(NCCc1c(-c2ccc(F)cc2)[nH]c2c(F)cc(F)cc12)[C@@H]1CCCO1`, the IC50 is 250 to 1000 nM.

Source of the values: US20230014907A1, “INHIBITORS OF APOL1 AND METHODS OF USING SAME” (Vertex Pharmaceuticals Incorporated, priority 2020, published 2023).
